Reference: US20240383942A1, “WATER-SOLUBLE ALLOPR[…], AND PREPARATION METHOD THEREFOR AND USE THEREOF” (NANJING MINOVA PHARMACEUTICAL CO., LTD., priority 2021, published 2024)

Assay: In vitro metabolic study in human liver microsome incubation system
Conditions: human liver microsomes 0.5 mg protein/mL, NADPH, 37° C.
Protocol: Instruments, conditions and parameters: liquid chromatography-mass spectrometry system (LC/MS/MS, Shimadzu LC 30-AD, MS API 4000); the chromatographic column was ACQUITY UPLC BEH C18 column (1.7 μm 2.1×50 mm Column, Part No. 186002350); the mobile phase was acetonitrile-water-formic acid (50:50:0.1); the flow rate was 0.7 mL/min; the injection volume was 5μL; the column temperature was room temperature. An electrospray ionization (ESI) source was adopted with a spray voltage of 4.8 KV; the capillary temperature (TEM) was 300° C.; the sheath gas was N2, and the flow rate was 10 psi; the auxiliary gas was N2, and the flow rate was 1 psi; the collision-induced dissociation (CID) gas was Ar, and the pressure was 1.5 mTorr. The mass spectrometry scan mode was mass spectrometry multiple reaction monitoring (MRM), and the positive ion mode was used for detection.
About 10 mg of each of the samples to be tested was precisely weighed out and dissolved in 0.1 mL of DMSO, and the solution was stepwise diluted with purified water to prepare 10 μM and 1 μM standard stock solutions. In an ice bath, the detection incubation system was prepared according to Table 3. NADPH was added to the incubation system (see Table 4 for its composition) to start a reaction, and 50 μL of the resulting mixture was taken immediately and added to 150 μL of acetonitrile as a time-zero sample and a 1 μM standard curve sample. Another 1 μM standard stock solution was added to the incubation system, and 50 μL of the resulting mixture was taken immediately and added to 150 μL of acetonitrile as a 0.1 μM standard curve sample. […] Each sample was shaken and centrifuged at 18,000 g for 10 min, and a sample of the supernatant was taken and injected for LC/MS/MS analysis.

CCCNCC(O)COc1ccccc1C(=O)CCc1ccccc1 (stereo not drawn) [Propafenone, propafenone]
Concentration of the compound to be tested (parent) (incubation time 0 min): 1000 nM | Concentration of the compound to be tested (parent) (incubation time 5 min): 851 nM | Concentration of the compound to be tested (parent) (incubation time 15 min): 597 nM | Concentration of the compound to be tested (parent) (incubation time 30 min): 232 nM | Concentration of the compound to be tested (parent) (incubation time 45 min): 25 nM | Concentration of the compound to be tested (parent) (incubation time 60 min): 4 nM
